{
  "source": "paper PMC6802641",
  "binders": {"B1": {"name": "Nuclear factor interleukin 3 (NFIL3) (protein, UniProt O08750 1-462)", "chain": "MQLRKMQTIKKEPAPLDPTSSSDKMLLLNSALAEVAEDLASGEDLLLNEGSMGKNKSSACRRKREFIPDEKKDAMYWEKRRKNNEAAKRSREKRRLNDLVLENKLIALGEENATLKAELLSLKLKFGLISSTAYAQEIQKLSNSTAVYFQDYQTSKAAVSSFVDEHEPAMVAGSCISVIKHSPQSSLSDVSEVSSVEHTQESPAQGGCRSPENKFPVIKQEPVELESFAREAREERGTYSTSIYQSYMGSSFSTYSHSPPLLQVHGSTSNSPRTSEADEGVVGKSSDGEDEQQVPKGPIHSPVELQRVHATVVKVPEVNPSALPHKLRIKAKAMQVKVEALDSEFEGMQKLSSPADAIAKRHFDLEKHGTSGMAHSSLPPFSVQVTNIQDWSLKSEHWHHKELSSKTQSSFKTGVVEVKDGGYKVSEAENLYLKQGIANLSAEVVSLKRFIATQPISASDSR"}},
  "molecular_target": "T1, Forkhead box P3 (Foxp3) (UniProt Q99JB6)",
  "T1 sequence": "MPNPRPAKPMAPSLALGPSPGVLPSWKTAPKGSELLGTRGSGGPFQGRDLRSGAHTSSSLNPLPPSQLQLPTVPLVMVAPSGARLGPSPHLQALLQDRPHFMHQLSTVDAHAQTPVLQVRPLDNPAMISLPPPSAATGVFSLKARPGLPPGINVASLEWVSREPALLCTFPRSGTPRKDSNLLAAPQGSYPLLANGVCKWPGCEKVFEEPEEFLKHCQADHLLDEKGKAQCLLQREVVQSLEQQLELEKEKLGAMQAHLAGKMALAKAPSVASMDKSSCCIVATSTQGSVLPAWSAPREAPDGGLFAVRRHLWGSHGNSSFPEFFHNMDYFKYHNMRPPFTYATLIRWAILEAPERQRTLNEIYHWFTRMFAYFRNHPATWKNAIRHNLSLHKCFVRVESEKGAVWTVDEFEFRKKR",
  "assay": "co-IP; HEK293T cells transfected with pCMV-Nfil3 and pCMV-Foxp3; lysates by sonication, precleared with protein A/G; anti-NFIL3 or anti-Foxp3 antibody (or control IgG) overnight at 4 °C; protein A/G 2 h; washed with IP150 buffer; western blot with anti-Foxp3 or anti-NFIL3",
  "note": "These are yes or no findings as the source states them, for the method shown. Binding seen in cells or lysates may run through a third protein. Some binding calls cover weakened binding; strength is not graded here.",
  "data": [
    {"binder": "B1", "values": [
      {"measurement": "binding", "value": "binds"}
    ]}
  ]
}
